Test results as given in the supplement of paper PMC10331698.
± gives the standard deviation of the averaged measurements. Most entries show no effect beyond the scatter of the controls.

Key:
Test in all cases: level (log10 ratio to DMSO vehicle control); higher = higher biomarker level / cell amount than vehicle control
[1] = compound: OCC(F)(F)C(F)(F)C(F)(F)CO [Hexafluoroamylene glycol]; conditions: 2200 nM; in DMSO
Protocol: (§1)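 BioMAP Diversity Plus panel of 12 human primary cell co-culture systems (3C, 4H, LPS, SAg, BT, BF4T, BE3C, CASM3C, HDF3CGF, KF3CT, MyoF, Mphg). Compounds were added 1 h before stimulation and left for 24 h (MyoF 48 h; BT 72 h for soluble read-outs or 6 d for IgG). Biomarkers were read by ELISA, cytotoxicity by SRB, PBMC viability and proliferation by Alamar Blue. Each well value was divided by the mean of 8 DMSO control wells on the same plate and log10 transformed; duplicate blinded samples were tested at 4 concentrations.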

[2] = compound: O=C(Cl)C(F)(F)C(F)(F)C(F)(F)C(=O)Cl [Hexafluoroglutaryl chloride]; conditions: 2200 nM; in DMSO
Protocol: as §1

[3] = compound: FC(F)(F)C(F)(C(F)(F)F)C(F)(F)C(F)(F)CC1CO1 [3-(Perfluoro-3-methylbutyl)-1,2-propenoxide]; conditions: in DMSO
Protocol: as §1

[4] = compound: OCCCC(F)(F)C(F)(F)C(F)(F)C(F)(F)C(F)(F)C(F)(F)C(F)(F)F [7:3 Fluorotelomer alcohol]; conditions: 2200 nM; in DMSO
Protocol: as §1

[5] = compound: O=S(=O)(O)CCC(F)(F)C(F)(F)C(F)(F)C(F)(F)F [4:2 Fluorotelomer sulfonic acid]; conditions: 2200 nM; in DMSO
Protocol: as §1

[6] = compound: C=CC(=O)OCCC(F)(F)C(F)(F)C(F)(F)C(F)(F)C(F)(F)C(F)(F)C(F)(F)C(F)(F)F [8:2 Fluorotelomer acrylate]; conditions: 2200 nM; in DMSO
Protocol: as §1

[7] = compound: C=CC(=O)OCC(F)(F)C(F)(F)C(F)(F)COC(=O)C=C [1H,1H,5H,5H-Perfluoro-1,5-pentanediol diacrylate]; conditions: 2200 nM; in DMSO
Protocol: as §1

[8] = compound: O=C(O)C=C(C(F)(F)F)C(F)(F)F [3,3-Bis(trifluoromethyl)-2-propenoic acid]; conditions: in DMSO
Protocol: as §1

[9] = compound: FC(F)(F)C(F)(F)C(F)(F)C(F)(F)C(F)(F)C(F)(F)I [Perfluoro-1-iodohexane]; conditions: in DMSO
Protocol: as §1

[10] = compound: FC(F)(I)C(F)(F)C(F)(F)C(F)(F)C(F)(F)C(F)(F)I [1,6-Diiodoperfluorohexane]; conditions: 2200 nM; in DMSO
Protocol: as §1

[11] = compound: O=S(=O)(O)C(F)(F)C(F)(F)C(F)(F)C(F)(F)C(F)(F)C(F)(F)F [Perfluorohexanesulfonic acid]; conditions: 2200 nM; in DMSO
Protocol: as §1

[12] = compound: C=CC(=O)OCCC(F)(F)C(F)(F)C(F)(F)C(F)(F)F [2-(Perfluorobutyl)ethyl acrylate]; conditions: 2200 nM; in DMSO
Protocol: as §1

[13] = compound: O=C(O)C(F)(F)C(F)(F)C(F)(F)C(F)(F)C(F)(F)C(F)(F)C(F)(F)C(F)(F)C(F)(F)C(F)(F)C(F)(F)C(F)(F)C(F)(F)F [Perfluorotetradecanoic acid]; conditions: in DMSO
Protocol: as §1

Test System	level (log10) [1]	level (log10) [2]	level (log10) ([3]; 740 nM)	level (log10) ([3]; 2200 nM)	level (log10) [4]	level (log10) [5]	level (log10) [6]	level (log10) [7]	level (log10) ([8]; 2200 nM)	level (log10) ([8]; 6700 nM)	level (log10) ([8]; 20000 nM)	level (log10) ([8]; 60000 nM)	level (log10) ([9]; 2200 nM)	level (log10) ([9]; 6700 nM)	level (log10) ([9]; 20000 nM)	level (log10) ([9]; 60000 nM)	level (log10) [10]	level (log10) [11]	level (log10) [12]	level (log10) ([13]; 740 nM)	level (log10) ([13]; 2200 nM)
HDF3CGF:TIMP-2	0.0255 ± 0.076	-0.0555 ± 0.0092	-0.0495 ± 0.028	-0.0295 ± 0.081	-0.0335 ± 0.019	0.0125 ± 0.06	-0.0545 ± 0.094	-0.142 ± 0.086	-0.023 ± 0.018	-0.0175 ± 0.013	-0.0595 ± 0.028	-0.082 ± 0.03	-0.011 ± 0.035	0.017 ± 0.038	0.0295 ± 0.018	0.031 ± 0.045	-0.0065 ± 0.0078	-0.0105 ± 0.026	-0.0225 ± 0.036	0.0275 ± 0.043	0.05 ± 0.016
BF4T:CCL2/MCP-1	0.0505 ± 0.054	-0.0135 ± 0.037	0.0205 ± 0.042	0.0145 ± 0.013	0.0375 ± 0.0035	0.0155 ± 0.056	-0.0085 ± 0.00071	-0.0055 ± 0.032	0 ± 0.045	0.0005 ± 0.0021	-0.052 ± 0.031	-0.0635 ± 0.0064	0.014 ± 0.03	-0.002 ± 0.025	-0.024 ± 0.025	-0.0315 ± 0.028	0.0135 ± 0.0064	0.004 ± 0.038	0.0155 ± 0.026	0.013 ± 0.031	0.0175 ± 0.015
lMphg:IL-1alpha	-0.006 ± 0.027	-0.034 ± 0.0085	-0.0135 ± 0.03	-0.0505 ± 0.019	0.0225 ± 0.018	0.04 ± 0.09	-0.003 ± 0.05	0.061 ± 0.011	-0.0385 ± 0.023	-0.073 ± 0.068	-0.0565 ± 0.052	-0.043 ± 0.075	0.0225 ± 0.015	0.008 ± 0.0057	0.0525 ± 0.019	0.027 ± 0.011	-0.001 ± 0.12	0.0175 ± 0.077	0.0145 ± 0.076	0.0155 ± 0.03	-0.0065 ± 0.019
BE3C:CXCL11/I-TAC	0.0185 ± 0.074	0.021 ± 0.014	-0.01 ± 0.0085	0 ± 0.016	0.0275 ± 0.0021	-0.005 ± 0.042	0.0035 ± 0.03	-0.0105 ± 0.0035	-0.0205 ± 0.025	-0.0375 ± 0.0092	-0.033 ± 0.023	-0.019 ± 0.011	0.0115 ± 0.026	-0.0005 ± 0.0021	0.002 ± 0.0057	0.0175 ± 0.0092	0.004 ± 0.017	0.011 ± 0.018	-0.012 ± 0.011	-0.052 ± 0.11	-0.073 ± 0.035
BE3C:MMP-9	0.004 ± 0.0014	0.016 ± 0.016	0.008 ± 0.044	-0.0035 ± 0.022	-0.0245 ± 0.032	-0.002 ± 0.024	-0.0195 ± 0.036	0.011 ± 0.0028	-0.017 ± 0.04	-0.0425 ± 0.005	-0.0735 ± 0.0021	-0.079 ± 0.027	-0.0045 ± 0.013	0.0075 ± 0.0092	0.013 ± 0.0028	0.001 ± 0.023	-0.023 ± 0.027	-0.003 ± 0.02	0.0155 ± 0.016	-0.0105 ± 0.023	0.001 ± 0.057
HDF3CGF:CXCL8/IL-8	0.0015 ± 0.0078	0.0035 ± 0.0035	0.0095 ± 0.0064	0.0045 ± 0.011	0.004 ± 0.0057	-0.0035 ± 0.0064	-0.005 ± 0.02	-0.009 ± 0.0042	0.0055 ± 0.012	0.008 ± 0.0014	-0.001	0.022 ± 0.011	0.003 ± 0.0099	-0.0055 ± 0.0021	-0.002 ± 0.0057	-0.024 ± 0.037	0.007 ± 0.0071	-0.003 ± 0.0085	0.0145 ± 0.00071	0.003 ± 0.016	-0.018 ± 0.017
